# Primary screen of a compound library

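Growth of Mycobacterium tuberculosis over 4 days (cholesterol / DPPC medium with tyloxapol); the read-out is not stated. Tested at 50 µM. Higher reads as more growth inhibition (inferred: compounds with an IC50 in retests scored well above the rest). Size under these conditions: about 69,000 compounds, about 370 of them at 50% or above in at least one test.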

Results are given as percent effect. The controls that fix the scale are not given in the record; negative values are as filed. Compounds were drawn at random from those tested, without regard to their results. Two or more numbers in one place are separate tests of the same structure; such repeats can differ widely.

| compound | Percent Effect |
|---|---|
| `CC(C)C(=O)NC1CCCN(C(=O)c2ccccc2O)C1` (stereo not drawn) | 16.52 |
| `CC1CS(=O)(=O)CCN1CCCc1ccc(C(F)(F)F)cc1` (stereo not drawn) | 11.49 |
| `O=C(NCC1(CO)CC1)c1ccccc1Cl` | -3.802 |
| `Cc1cnc(C(=O)N2CCCCC2c2nc(C)cs2)cn1` (stereo not drawn) | 3.674 |
| `COCCO[C@H]1CCN(C(=O)NC2CC2)[C@H]1Cc1cnn(C)c1` | -6.984 |
| `CCO[C@H]1C[C@@H](O)C12CCN(C(=O)CCN1CCCC1=O)CC2` | 7.239 |
| `CNC(=O)C1Cn2ccnc2C2(CCN(C(=O)NC3CCCC3)CC2)O1` (stereo not drawn) | -0.1428 |
| `COCCN1CCN(Cc2csc(-c3cnn(C)c3)n2)CC1` | 9.562 |
| `COc1ccc(N2CCN(C(=O)COc3nccc(C)n3)CC2)cc1` | 1.544 |
| `Cc1[nH]ncc1CCCNC(=O)Nc1ccccc1` | -15.43 |
| `COCC(NC1CCSCC1)c1ccnn1C` (stereo not drawn) | -10.05 |
| `COc1cccc(N2CCC(CNC(=O)NCc3ccco3)C2)c1` (stereo not drawn) | -18.92 |
| `O=C(O)C(F)(F)F.O=C1COC2(CCN(CC3CC3)CC2)CN1c1ccccc1` | -8.972 |
| `CC(C)c1nc(C2CCCN(Cc3nnc(C4CC4)o3)C2)no1` (stereo not drawn) | 0.3823 |
| `O=C(c1ccc(Cl)cc1)N1CCC2(CC1)C(=O)Nc1ccccc12` | -4.025 and -35.27 |
| `CCCc1cc(C(=O)N(C)Cc2cccc3ncccc23)n(C)n1` | -13.21 |
| `[H][C@@]12CN(C(=O)N(C)C)C[C@]1([H])C(=O)NC21CCN(C(=O)CC(C)C)CC1` | -2.129 |
| `[H][C@]12CC[C@]([H])(CN(Cc3ccncc3)C1)N(C(=O)OC)C2` | -6.503 |
| `Cc1cnn(C2CCCN(C(=O)c3cc(-c4cccs4)n[nH]3)C2)c1` (stereo not drawn) | 12.08 |
| `Nc1nc(CN2CCN(c3nccs3)CC2)cs1` | -3.811 |
| `COCCC(=O)N1Cc2[nH]nc(COc3cccnc3)c2C1` | -17.54 and 5.347 |
| `COc1cccc2c1CCN(C(=O)NCc1nnc3ccccn13)C2` | 6.37 |
| `Cc1noc(C2CCC3(CCN(C(=O)c4cc(C5CC5)on4)CC3)O2)n1` (stereo not drawn) | 11.14 |
| `Cc1nccn1-c1cc(CNC(=O)CCC2CCCO2)ccn1` (stereo not drawn) | -21.54 |
| `Cc1ncsc1-c1nc(CC2CCN(C)CC2)nn1Cc1ccccc1` | -9.914 |
| `CN(C)S(=O)(=O)N1CC[C@]2(C[C@@H](OCC3CC3)CO2)C1` | -9.216 |
| `Cc1nc(C)c(CCNC(=O)NC2CC(=O)N(C(C)(C)C)C2)s1` (stereo not drawn) | 6.874 and -6.996 |
| `CNC(=O)c1cnc(/C=C/c2ccc(OC)c(O)c2)s1` | 0.9947 and -2.453 |
| `CCCNC(=O)C(C)n1cc(Br)cn1` (stereo not drawn) | -41.54 |
| `CCc1ccc(C(=O)NC(C)c2ccc(S(C)(=O)=O)c(F)c2)o1` (stereo not drawn) | 12.23 |
| `CC(C)n1nc(Cn2cccn2)c2c1CN(CC1CCOC1)C2.O=C(O)C(F)(F)F` (stereo not drawn) | -2.51 |
| `CC(=O)N1CCCC1c1nccnc1Nc1cccc(C)n1` (stereo not drawn) | 0.7646 |
| `Cc1c(C2SCC(=O)Nc3c2c(O)nn3C2CCCCC2)cnn1C` (stereo not drawn) | -8.055 |
| `O=C(O)C(F)(F)F.[H][C@]12CCN(Cc3nccs3)C[C@@]1([H])OCCN(C(=O)c1ccco1)C2` | 11.7 |
| `NC(=O)CN1CCC(NC(=O)N2CCCC2c2ccsc2)CC1` (stereo not drawn) | -0.1176 |
| `CCN(C(c1ccc(OC)cc1)c1cccnc1)S(C)(=O)=O` (stereo not drawn) | -15.86 |
| `O=C(c1nn(-c2ccccc2F)cc1O)N1CCC2(CC1)OCCO2` | 3.121 |
| `Cc1ccc(C(CNC(=O)NCc2ccccn2)N2CCOCC2)o1` (stereo not drawn) | -36.87 |
| `N#Cc1ccc(F)c(CN2CCCC2Cn2cncn2)c1` (stereo not drawn) | 9.843 |
| `COCCOc1cccc(C(=O)N2CCCC(n3ccnc3)C2)c1` (stereo not drawn) | 10.8 |
| `CCNc1ncc(C(=O)N(C)Cc2nc3ccccc3n2C)cn1` | -6.317 |
| `CC(CO)NC(=O)c1ccc2[nH]/c(=N\S(C)(=O)=O)sc2c1` (stereo not drawn) | -2.335 |
| `CN(C)CCN1CCOCC2(CCCN(C(=O)c3cccc(O)c3)C2)C1` (stereo not drawn) | -1.45 |
| `CC(C)Cc1noc(CN2CCN(CCO)CC2)n1` | -16.91 |
| `NCc1ccnc(Oc2ccccc2)c1` | -2.713 |
| `O=C1CCC2(CCCN(C(=O)c3ccc[nH]3)C2)CN1CCc1c[nH]cn1` (stereo not drawn) | 4.221 |
| `COc1nc(C)cc(C)c1CNC(=O)N(C)Cc1cnn(C)c1` | -0.6191 |
| `CN1CCC(Cc2cccc(-c3cc(F)ccc3C(=O)O)n2)CC1` | -17.91 |
| `[H][C@@]12CC[C@@]([H])(C1)[C@H](Nc1nccc(-c3cnn(CCC)c3C)n1)C2` | -1.496 and 12.33 |
| `CCOCC(=O)NCCc1nc(C2CC2)cc(C(F)(F)F)n1` | -9.099 |
| `COCC(C)NC(=O)CN1CCC2(CC1)OCCO2` (stereo not drawn) | 25.74 |
| `Cc1nccc(-c2ccccc2)c1C(=O)N1CCC2(CCCO2)CC1` | -25.02 |
| `OC(CN1CCC(c2ccn[nH]2)CC1)c1ccccc1F` (stereo not drawn) | -18.4 |
| `CC(C)Nc1cccc(C(=O)NCC(O)c2ccc(F)cc2F)c1` (stereo not drawn) | -11.71 |

Repeated from the top, 3 entries:

compound	Percent Effect
CC(C)C(=O)NC1CCCN(C(=O)c2ccccc2O)C1 (stereo not drawn)	16.52
CC1CS(=O)(=O)CCN1CCCc1ccc(C(F)(F)F)cc1 (stereo not drawn)	11.49
O=C(NCC1(CO)CC1)c1ccccc1Cl	-3.802

The values are deposited in ChEMBL (CHEMBL3988442, “University of Dundee, Small-Polar-MMV Screening Library” (2021)).